For at least one compound, name, drawing or mass did not settle the structure.
Test system: PPAR-γ
Assay: Effect of inhibiting expression of PPAR-γ by Western blot in IGF-1-treated human sebocytes
Assay type: cell-based
Conditions: human sebocytes pretreated with IGF-1 (50 ng/ml), sample 20 μM, 24 hours, FIG. 1
Method: 1. Effect of Inhibiting Expression of PPAR-γ by Western Blot
In the present invention, 1.5×10^5 (1 mL/well) of human sebocytes were adhered on a 12-well plate containing a Dulbecco's modified eagle medium (DMEM)/F12 (1:1) containing 10% fetal bovine serum (FBS). After culturing for 24 hours, cells were collected after 24 hours from each sample of a control group (1 μM) in which the medium was replaced with a serum-free medium and previously treated with IGF-1 (50 ng/ml) and an experimental group in which the control group was treated with Compound 1 of Example 1 (20 μM). In addition, in the present invention, the control means a sample which was not treated with IGF-1, and the comparative group means a sample in which the control group was treated with retinoic acid (20 μM). Thereafter, expression of PPAR-γ protein which is a representative lipid synthetic transcription factor of sebocytes was analyzed by the Western blot, for each of these samples.

CC1=C(/C=C/C(C)=C/C=C/C(C)=C/C(=O)O)C(C)(C)CCC1 [retinoic acid, reference compound]
inhibition of PPAR-γ activation/expression (Western blot): activation of PPAR-γ was rather inhibited

From patent US11471391B2, “Cosmetic composition for inhibiting sebum hypersecretion” (NeoPharm Co., Ltd., priority 2019, dated 2022)
